Assay results as given in PubChem BioAssay AID493014 (National Center for Advancing Translational Sciences (NCATS), 2011).
Among all 340,000 compounds or so, about 170 (0.05%) were called active. Inconclusive means that the source gave no clear call. Such entries were picked first, then a sample of the others. The call rests on the fitted dose curve; in most records, active means well fitted inhibition curve with a large enough effect in the signal ratio, with a control signal flat (not every such curve was filed as active); inconclusive means small, poorly fitted or top-dose-only effect, or effect the other way, or a change in a side signal; inactive means flat fitted curve, though single readings scatter; the % refers to the signal ratio. Where the call is inconclusive, the potency comes from a doubtful curve fit.

assay: qHTS Assay to Find Inhibitors of Chronic Active B-Cell Receptor Signaling; settings: ABC-DLBCL IkBa-CBG/CBR reporter, luminescence ratio (green luciferase fused to IkBa over red control in TMD8 lymphoma cells), 4 h; activity change, negative = inhibition: at 46.1 µM (top of the series);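 on activity change, negative = inhibition: plate controls were basal doxycycline-induced cells for no effect and cells given 10 µM MG132 for full effect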
Outline: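 Compounds up to 46 uM were incubated four hours with TMD8 cells whose green CBG68 luciferase is fused to IkappaBalpha; red CBR luminescence normalised the signal, and concentration-effect curves were fitted to fusion, red and ratio data.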
Potency means the concentration at half of the fitted maximal effect.

| Structure (SMILES) | activity change, negative = inhibition | Potency |
| --- | --- | --- |
| COc1ccc(CNC(=O)C2CCCN2S(=O)(=O)c2ccc(Cl)cc2)cc1 (stereo not drawn) | inconclusive: 4.02% |  |
| CCOC(=O)C1(C)C=C(Nc2ccccc2)C(=O)N1c1ccccc1 (stereo not drawn) | inconclusive: 11.9% |  |
| CCCCCOc1ccc(C(=O)NCC2(c3ccccc3)CCOCC2)cc1 | inactive |  |
| O=C(Cc1ccc(Cl)cc1)NC1CC1 | inconclusive: -0.668% |  |
| Cc1ccc(S(=O)(=O)N2CCCC2C(=O)OCc2nc3sc(C)c(C)c3c(=O)[nH]2)cc1 (stereo not drawn) | inconclusive: -0.414% |  |
| COc1cc(CNCCO)ccc1OC1CCCC1 | inconclusive: 3.77% |  |
| Cc1cccc(NC(=S)NC(C)C(c2ccccc2)N2CCN(C)CC2)c1C (stereo not drawn) | inactive |  |
| Cc1nc2cc(-c3ccccc3)nn2c(C)c1CCC(=O)NCc1ccco1 |  | inconclusive: 29.1 µM [falling, partial curve, poor fit] |
| O=C1C=C(c2cc(F)ccc2F)C[C@@H](c2ccc(Cl)cc2)C1 | inconclusive: 8.34% |  |
| O=C(Nc1ccc(O)cc1C(=O)O)c1cccc(Br)c1 | inconclusive: 298% |  |
| O=C(Nc1ccc(F)cc1)c1cccnc1N1CCCCC1 | inconclusive: 6.99% |  |
| Cc1onc(-c2ccccc2)c1C(=O)OCC(=O)Nc1ccccc1 | inconclusive: 3.35% |  |
| NC(=O)c1sc2nc3c(cc2c1N)CCC3 | inactive |  |
| CCOC(=O)c1c(NC(=O)CN2C(=O)NC3(CCC(CC)CC3)C2=O)sc(C)c1-c1ccc(C)cc1 (stereo not drawn) | inactive |  |
| COc1ccc2nc(C)cc(SCC(=O)N/N=C/c3cccc4ccccc34)c2c1 |  | inconclusive: 20.6 µM [falling, partial curve] |
| COC(=O)c1cn(C(=O)c2cc(C)cc(C)c2)c2ccccc12 | inconclusive: -2.04% |  |
| Oc1[nH]c2ccccc2c1N=Nc1nc(Nc2ccccc2)nc(N2CCOCC2)n1 | inconclusive: -9.73% |  |
| COc1cc(CNc2ccc(N3CCCC3)cc2)ccc1OCc1ccccc1F |  | inconclusive: 16.4 µM [falling, partial curve] |
| COc1ccc(C2NC(=O)C(C#N)=C(S)N2c2cccc(C)c2)cc1OC (stereo not drawn) |  | inconclusive: 35.5 µM [falling, partial curve, poor fit] |
| COc1ccc(S(=O)(=O)N(C)C)cc1NC(=O)CSc1nncs1 | inconclusive: 12.1% |  |
| O=C(C1COc2ccccc2O1)N(Cc1cccnc1)c1nc2ccc(Cl)cc2s1 (stereo not drawn) | inactive |  |

| Structure (SMILES) | activity change, negative = inhibition | Potency |
| --- | --- | --- |
| N#Cc1nc(Cc2cccc3ccccc23)oc1NCCN1CCCCC1 | inconclusive: -7.74% |  |
| COc1ccc(/C=N/NC(=O)c2ccc(Cn3cc([N+](=O)[O-])cn3)o2)cc1O |  | inconclusive: 2.31 µM [falling, full curve] |
| Cc1cccc(N2CCN(Cc3ccc(Br)o3)CC2)c1C | inactive |  |
| COC(=O)c1ccc(NC(=O)c2cccc(C)c2[N+](=O)[O-])cc1 | inconclusive: -25% |  |
| COc1ccc(-c2noc(CCC(=O)NCCc3ccccc3)n2)cc1OC | inconclusive: 1.66% |  |
| CCOc1ccc(NC(=O)Nc2cccn(Cc3ccccc3)c2=O)cc1 |  | inconclusive: 15.8 µM [falling, partial curve, poor fit] |
| CCNc1cc(N2CCOCC2)nc(SC)n1 |  | inconclusive: 31.6 µM [falling, partial curve, poor fit] |
| CCCn1nnnc1SCC(=O)NCc1cccs1 | inactive |  |
| CCOC(=O)CC1NCCc2c1[nH]c1ccc(OC)cc21 (stereo not drawn) | inactive |  |
| O=C(C1=C[C@H](c2ccc(Br)cc2)C[C@H](OCc2ccc(CO)cc2)O1)N1CCN(Cc2ccc3c(c2)OCO3)CC1 |  | inconclusive: 10 µM [falling, single point] |
| O=c1cc(-c2ccccc2Cl)oc2c(NS(=O)(=O)c3cc(Cl)cc(Cl)c3O)ccc(O)c12 | inconclusive: -7.45% |  |
| CSc1ccccc1NC(=O)C1=CC(c2cccs2)=NS(=O)(=O)N1C | inconclusive: -15.4% |  |
| Cc1cccc(NC(=O)CSc2ncnc3nc[nH]c23)c1 |  | inconclusive: 11.2 µM [falling, partial curve] |
| CS(=O)(=O)N(Cc1ccccc1Cl)c1ccc(C(=O)N2CCCC2)cc1 | inconclusive: -1.37% |  |
| CCCCC[C@]12Cc3ccccc3C(O1)C1=C(CC(C)(C)CC1=O)O2 | inactive: 0.489% [at 9.22 µM] |  |
| Cn1c(=O)n(C)c2cc(C(=O)Nc3ccc4c(c3)OCO4)ccc21 | inconclusive: -1.32% |  |
| COc1cc(/C=N/Nc2nc(Nc3ccccc3)nc(-n3nc(C)cc3C)n2)cc(OC)c1OC | inconclusive: 7.61% |  |
| O=[N+]([O-])c1ccc(-[n+]2nc(-c3ccccc3)nn2-c2ccccc2)cc1 |  | inconclusive: 15.8 µM [rising, partial curve, poor fit] |
| O=C(CN1C(=O)COc2ccccc21)NCCN1CCOCC1 | inactive |  |
| CCOc1ccc(S(=O)(=O)N(C)c2ccc(OCC(=O)OCc3c(C)noc3C)cc2)cc1 | inconclusive: -0.965% |  |
| CCNC(=O)COc1cc(C)c(Br)c(C)c1 | inconclusive: 1.02% |  |

| Structure (SMILES) | activity change, negative = inhibition | Potency |
| --- | --- | --- |
| Cc1cc(NC(=S)NC(=O)/C=C/c2ccc(S(=O)(=O)N3CCOCC3)cc2)ccc1Br | inactive |  |
| Cc1ccc(Nc2nc(=O)c3cccnc3s2)cc1 | inactive |  |
| CCCCN(CC)C(=O)CSc1nc2n[nH]c(C)c2c(=N)n1-c1cccc(OC)c1 | inconclusive: 9.9% |  |
| COC(=O)c1c(C)oc2ccc(N(C(C)=O)S(=O)(=O)c3ccccc3)cc12 | inactive |  |
| Cc1oc(-c2ccc(Cl)cc2)nc1CS(=O)CC(=O)N1CCN(c2cccc(C(F)(F)F)c2)CC1 (stereo not drawn) | inactive |  |
| Cc1cc(C(=O)N/N=C/c2c(C)n(C)c3ccccc23)n[nH]1 | inactive |  |
| Cc1c(O)ccc(/C(Cc2ccc3ccccc3n2)=N\N)c1O | inconclusive: -9.24% |  |
| C=CCn1c(SCC(=O)NC(=O)NCCC)nnc1C1CCCCC1 | inconclusive: 11.9% |  |
| CNCCCN1c2ccccc2CCc2ccccc21 |  | inconclusive: 32.6 µM [falling, partial curve, poor fit] |
| CCC1(CC)NC(=S)N(Nc2ccccc2)C1=O | inactive |  |
| O=C(CNc1cc(S(=O)(=O)N2CCCC2)ccc1OCC(F)(F)F)Nc1ccc(SC(F)F)cc1 | inactive |  |
| COc1cccc(-c2cc(C(F)(F)F)c3c(N)c(C#N)sc3n2)c1 | inactive |  |
| COc1ccc(/C=N/NC(=S)NCC2CCCO2)cc1 (stereo not drawn) |  | inconclusive: 14.1 µM [falling, partial curve, poor fit] |
| COC(=O)c1cn(NC(=O)/C=C/c2cc(OC)ccc2OC)c(=O)c2ccccc12 | inconclusive: -1.59% |  |
| COc1ccc(CCN(C)C(=O)c2ccc(COc3ccccc3)o2)cc1OC |  | inconclusive: 14.1 µM [falling, partial curve, poor fit] |
| CNC(=O)c1c(NC(=O)c2nc3ccccc3s2)sc2c1CCC2 |  | inconclusive: 0.146 µM [falling, full curve] |
| Fc1ccc(NC(=S)Nc2cccc3ccccc23)cc1F | inactive |  |
| CCOc1ccc(Cl)cc1/C=N/O | inconclusive: -2.69% |  |
| Cn1cc(CNCc2cnc3ccccn23)c(-c2ccc(Oc3ccccc3)cc2)n1 | inactive |  |
| Cc1ccccc1OCCC(=O)N(Cc1ccccc1)c1c(N)n(Cc2ccccc2)c(=O)[nH]c1=O | inconclusive: 8.59% |  |
| Cc1cc(C)c(CN2CCN(Cc3ccc(C)o3)C(CCO)C2)c(-n2cccn2)c1 (stereo not drawn) | inactive |  |

| Structure (SMILES) | activity change, negative = inhibition | Potency |
| --- | --- | --- |
| CSc1cccc(NC(=O)CCCOc2ccc(Cl)cc2Cl)c1 | inconclusive: -11.8% |  |
| O=S(=O)(c1ccc(Cl)cc1)c1snnc1-c1ccccc1 | inconclusive: -71.3% |  |
| CCCS(=O)(=O)N1CCC(C(=O)NCCN(CC)c2ccccc2)CC1 | inactive |  |
| Cc1cc(C(=O)N2CCCC(N3CCN(c4cccc(C(F)(F)F)c4)CC3)C2)c(C)o1 (stereo not drawn) | inconclusive: -2.46% |  |
| CNS(=O)(=O)c1cc(NC(=O)c2cncn2-c2ccccc2)ccc1C | inconclusive: -13.2% |  |
| CCOc1ccc(CCNC(=O)COC(=O)c2cc(OC)c(OC)cc2[N+](=O)[O-])cc1OCC | inactive |  |
| COc1ccc(-n2nc(C(=O)NCC(=O)NCc3cccc(F)c3)c3ccccc3c2=O)cc1Cl | inactive |  |
| O=S(=O)(Nc1nc(SCc2ccc(Cl)cc2)n[nH]1)c1ccc(F)cc1 | inconclusive: 4.49% |  |
| CC(=O)N1CCc2cc(S(=O)(=O)NCCC(=O)NC3CCCc4ccccc43)ccc21 (stereo not drawn) | inconclusive: -15.5% |  |
| Cc1c(C(=O)Nc2ccc(C(=O)O)cc2)cnn1C | inconclusive: -3.83% |  |
| CCOc1cc(/C=C/c2nc3ccccc3c(=O)[nH]2)ccc1O | inconclusive: -3.68% |  |
| CCOC(=O)C(NC(=O)c1ccccc1Cl)(Nc1ccc(C)c(C)c1)C(F)(F)F (stereo not drawn) | inactive |  |
| CC(C)CN(CCCNC(=O)CN1N=C(c2ccc(Cl)cc2)CCC1=O)CC(C)C | inconclusive: -19.1% |  |
| COCC(C)NC(=O)c1cc(-c2ccc(O)cc2)on1 (stereo not drawn) |  | inconclusive: 22.4 µM [falling, partial curve] |
| C[C@H](CO)N1C[C@H](C)[C@@H](CN(C)S(=O)(=O)c2cccs2)Oc2ccc(NC(=O)Cc3ccccc3)cc2C1=O | inconclusive: -2.96% |  |
| C=CCn1c(-c2cc3c(s2)CCC(CC)C3)n[nH]c1=S (stereo not drawn) | inconclusive: -9.31% |  |
| Cc1ccc(-n2c(=O)[nH]c3c(C(N)=O)nc(CC(C)C)nc32)cc1 | inconclusive: 6.85% |  |
| O=Cc1ccc(N2CCCCCC2)cc1 | inconclusive: 20.1% |  |
| O=C(CSc1cccc[n+]1[O-])Nc1ccccc1Oc1ccccc1 |  | inconclusive: 5.62 µM [falling, single point] |
| O=C(Nc1ccccc1)c1ccccc1C(=O)N1CCCCC1 |  | inconclusive: 11.2 µM [rising, single point] |

Molecules above containing a COOH group:

| Structure (SMILES) | activity change, negative = inhibition | Potency |
| --- | --- | --- |
| O=C(Nc1ccc(O)cc1C(=O)O)c1cccc(Br)c1 | inconclusive: 298% |  |
| Cc1c(C(=O)Nc2ccc(C(=O)O)cc2)cnn1C | inconclusive: -3.83% |  |
